# Results as given in PubChem BioAssay AID493014 (National Center for Advancing Translational Sciences (NCATS), 2011).
# Hit rate of the full screen: of about 340,000 compounds, about 170 (0.05%) were called active. This list was built around the results that the source calls inconclusive (neither active nor inactive); the mix of calls is not that of the screen. Calls come from the whole dose curve; as a rule, active = well fitted inhibition curve with a large enough effect in the signal ratio, with a control signal flat (not every such curve was filed as active); inconclusive = small, poorly fitted or top-dose-only effect, or effect the other way, or a change in a side signal; inactive = flat fitted curve, though single readings scatter; the % refers to the signal ratio. Potencies of inconclusive entries are doubtful fits and often do not repeat.
# Assay: qHTS Assay to Find Inhibitors of Chronic Active B-Cell Receptor Signaling;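 for activity change, negative = inhibition: plate controls were basal doxycycline-induced cells for no effect and cells given 10 µM MG132 for full effect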
# Settings: ABC-DLBCL IkBa-CBG/CBR reporter, luminescence ratio (green luciferase fused to IkBa over red control in TMD8 lymphoma cells), 4 h; activity change, negative = inhibition: at 46.1 µM (top of the series) unless noted
# Summary of the method: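 Compounds up to 46 uM were incubated four hours with TMD8 cells whose green CBG68 luciferase is fused to IkappaBalpha; red CBR luminescence normalised the signal, and concentration-effect curves were fitted to fusion, red and ratio data.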
# Potency is the fitted concentration of half-maximal effect.
SMILES,"activity change, negative = inhibition",Potency
CC1(C)CC(N=C2C([N+](=O)[O-])=CC=C3C2=NC2(CCCCC2)N3O)CC(C)(C)N1,inconclusive: 30.4%,
O=c1c2c(-c3ccco3)csc2nc(SCc2cn3cccnc3n2)n1-c1ccccc1,inconclusive: -20.7%,
Cc1ccc(NC(=O)CSc2nc(N)c3c4c(sc3n2)CSC(C)(C)C4)cc1,inconclusive: 14.9%,
Cc1ccc2c(c1)C(c1ccc(O)cc1)(c1ccc(O)cc1)C(=O)N2C,inconclusive: -10.8%,
O=C(NCCc1ccccc1)c1cccs1,,"inconclusive: 16.4 µM [falling, partial curve, poor fit]"
Cc1nonc1-c1ccc2c(c1)OCO2,inconclusive: -4.51%,
COc1ccc(C(=O)NN/C(C)=C/C(=O)c2ccccc2)cc1,inconclusive: -17.3%,
NC(=O)c1ccsc1NC(=O)C1CCCCC1,,"inconclusive: 29.1 µM [falling, single point]"
CC(C)N(C)Cc1nnnn1CC(=O)N(C)Cc1cccc(Cl)c1,inconclusive: -12.3%,
COc1ccccc1CCNCc1ccc(OC)c(OCc2ccccc2)c1,inconclusive: -10.6%,
CCc1nnc(NC(=O)CSc2nc(-c3ccc(OC)cc3)ns2)s1,inconclusive: 9.98%,
O=C(Nc1ccc(Br)cn1)c1ccc(Cl)s1,,"inconclusive: 15.8 µM [falling, partial curve]"
O=c1c([N+](=O)[O-])c[nH]c2ccccc12,,"inconclusive: 20.6 µM [falling, single point]"
N#Cc1c(NCc2ccccc2)ccnc1NCc1cccnc1,inconclusive: -20.1%,
CCOC(=O)c1oc2cc(OCC(=O)OC)ccc2c(=O)c1-c1ccc(OC)c(OC)c1,,"inconclusive: 22.4 µM [falling, single point]"
CNc1nc(N)c([N+](=O)[O-])c(NCc2ccccc2)n1,inconclusive: -1.28%,
C=CCOC(=O)C1=C[C@H](c2ccc(Br)cc2)[C@@H](CCCO)[C@H](OCC)O1,inconclusive: -6.72%,
O=C(COc1ccc(Br)cc1Cl)Nn1cnnc1,inconclusive: 22.5%,
C/C(=N\Nc1nc2ccccc2[nH]1)c1ccc(Cl)s1,,"inconclusive: 23.1 µM [falling, single point]"
N[C@@H](Cc1cc(I)c(O)c(I)c1)C(=O)O,inactive,
O=c1c2ccccc2nc2n1CCCN2,inconclusive: 15.4%,

SMILES,"activity change, negative = inhibition",Potency
COc1cc(NS(=O)(=O)c2ccc(N/C=C(\C#N)c3nc4cc(Cl)ccc4o3)cc2)nc(OC)n1,,"inconclusive: 1.64 µM [rising, full curve]"
OCCCN=c1cc(-c2ccccc2)oc2ccc(Cl)cc12,,"inconclusive: 0.461 µM [rising, full curve, poor fit]"
O=C(NCCCCCCOC1=NS(=O)(=O)c2ccccc21)C(=O)Nc1ccccc1,,"inconclusive: 11.2 µM [falling, partial curve]"
O=C(Nc1nc2ccccc2[nH]1)c1ccccc1OC(F)F,,"inconclusive: 5.01 µM [falling, partial curve]"
CCN(CC)S(=O)(=O)c1ccc(Cl)c(C(=O)N2CCc3ccccc32)c1,inconclusive: 3.41%,
CC(CCc1ccccc1)NC(=O)CCCCCNc1nc(=S)[nH]c2ccccc12 (stereo unspecified),inconclusive: -26.1%,
CC1CCc2nn(CC(=O)Nc3ccc(F)cc3F)cc2C1 (stereo unspecified),inconclusive: 4.07%,
CC(=O)Nc1ccc(Nc2c3ccccc3nc3ccccc23)cc1,inconclusive: 18.7%,
COc1cccc(/C=C/C(=O)Nc2ccccc2N2CCOCC2)c1,,"inconclusive: 25.1 µM [falling, single point]"
Cc1cc(C)n2nc(-c3ccsc3-n3c(C)ccc3C)cc2n1,inconclusive: 6.26%,
CCOC(=O)CCC(NC(=O)c1cncc(O)c1)C(=O)OCC (stereo unspecified),inactive,
Cc1ccn(CCNC(=O)C2CCC(=O)N(CCc3ccc(Cl)cc3)C2)n1 (stereo unspecified),inconclusive: -8.7%,
Cc1nc(SCC(=O)Nc2ccc(OCc3ccccc3)cc2)n[nH]1,inactive,
COc1ccc(S(=O)(=O)Nc2ccc(F)c(Cl)c2)cc1OC,inactive,
COC1=C/C(=C/c2c(N)n3c(nc2=O)sc2cc(S(C)(=O)=O)ccc23)C=CC1=O,,"inconclusive: 28.2 µM [falling, single point]"
O=C(O)CCn1c(SCCOc2ccccc2)nc2ccccc21,inactive,
COc1ccccc1N(CC(O)COc1c(C)cc(C)cc1C)S(=O)(=O)c1ccccc1 (stereo unspecified),inconclusive: 0.0101%,
Brc1ccc(-c2cn3c(n2)SCC3)cc1,inconclusive: 0.184%,
C/C(=N\Nc1ccc(C(F)(F)F)cn1)c1ccncc1,inconclusive: 1.86%,
O=C(NCCc1ccccc1)C(=O)Nc1nccs1,inconclusive: -28.7%,
Cc1cccc(N2C(=O)CN(Cc3sccc3C)C2=S)c1,inconclusive: -0.172%,

SMILES,"activity change, negative = inhibition",Potency
COC(=O)c1ccc(CO/N=C/c2ccccc2OC)cc1,,"inconclusive: 35.5 µM [rising, single point]"
CC(=O)NC(NC(=S)Nc1ccc(N=Nc2ccccc2)cc1)C(Cl)(Cl)Cl (stereo unspecified),,"inconclusive: 12.6 µM [falling, partial curve]"
CC(=O)c1cccc(NC(=S)N2CCC(Cc3ccccc3)CC2)c1,inactive,
Cc1cccc(NC(=O)C23CCC(C)(C2Br)C3(C)C)c1 (stereo unspecified),,"inconclusive: 7.08 µM [rising, partial curve, poor fit]"
CCOC(=O)[C@H]1[C@H]2COc3ccc(OC)cc3[C@@H]2N2C(=O)CN(CC3CCCO3)C(=O)[C@@]12C (stereo partly specified),inactive,
CCOC(=O)C1=C(C)N[C@@]2(O)c3ccccc3C(=O)[C@@]12O,inactive,
Cc1nc2c3cc(F)ccc3n(Cc3ccc(F)cc3)c2s1,inactive,
CC(=O)Oc1ccc(C(=O)O)cc1OC(C)=O,inconclusive: 5.56%,
CC(=O)Nc1ccc2nc(NS(=O)(=O)c3ccc(C)cc3)sc2c1,inactive,
COc1ccc(NC(=O)/C(C#N)=C/c2ccc(-c3ccc(Cl)c(C(=O)O)c3)o2)cc1,inconclusive: -14.8%,
N#Cc1ccc2c(c1)C[C@]1(c3ccsc3)Oc3c(c(=O)oc4ccccc34)C2O1,inconclusive: 2.57% [at 9.22 µM],
COc1cc(C(=O)NCc2ccc(C)cc2)ccc1OC(F)F,inconclusive: 0.0176%,
CCCOC1CCCN(C(=O)c2ccc(OC3CCN(C(=O)CCOC)CC3)cc2)C1 (stereo unspecified),inconclusive: -1.25%,
CCN(C(=O)Cc1c(C(=O)O)n(CC)c2ccccc12)c1ccccc1C,inconclusive: 6.08%,
CC(C)C1Cc2c(C#N)c(N)n(C)c(=S)c2CO1 (stereo unspecified),inconclusive: 8.68%,
Cc1cc(NC(=S)Nc2cccnc2)ccc1Br,inconclusive: 16.7%,
O=C(CSc1nnnn1CCCO)Nc1ccc2c(c1)OCO2,inconclusive: 14.4%,
CNc1nc(C)c(C(=O)OCC(=O)OC)s1,inactive,
CCCCC(=O)NC(=S)NNC(=O)CC#N,inconclusive: 15.8%,
COc1ccc(C(=O)N/N=C(/C)c2cccc(NC(=O)c3ccncc3)c2)cc1OC,,"inconclusive: 35.5 µM [falling, single point]"
Cc1ccccc1-c1ccc(Nc2ccc(C(=O)N3CCOCC3)cc2)nn1,,"inconclusive: 14.1 µM [falling, partial curve, poor fit]"

# Single entries from above:
# For Potency, COc1ccc(C(=O)N/N=C(/C)c2cccc(NC(=O)c3ccncc3)c2)cc1OC is entered as inconclusive: 35.5 µM [falling, single point]
# For Potency, NC(=O)c1ccsc1NC(=O)C1CCCCC1 is entered as inconclusive: 29.1 µM [falling, single point]
# For activity change, negative = inhibition, C=CCOC(=O)C1=C[C@H](c2ccc(Br)cc2)[C@@H](CCCO)[C@H](OCC)O1 is entered as inconclusive: -6.72%
# For activity change, negative = inhibition, COc1ccccc1N(CC(O)COc1c(C)cc(C)cc1C)S(=O)(=O)c1ccccc1 (stereo unspecified) is entered as inconclusive: 0.0101%

# (cont.)

SMILES,"activity change, negative = inhibition",Potency
O=C(c1cc(-c2cccc(Cl)c2)on1)N1CCc2ccccc2C1,inconclusive: -5.86%,
CCN(CC(=O)Nc1ccc(NC(C)=O)cc1)C(=O)c1cccc2ccccc12,inconclusive: -0.87%,
O=C(Nc1ccc(F)cc1)c1cn(-c2ccccc2)nc1-c1ccncc1,,"inconclusive: 0.58 µM [falling, full curve, poor fit]"
O=C(CCCSc1nc2ccccc2s1)Nc1nccs1,,"inconclusive: 1.58 µM [rising, full curve, poor fit]"
Cc1ccc(C(=O)NC2CCN(CC(=O)Nc3ccccc3Cl)CC2)cc1,inconclusive: -0.914%,
Cc1nn(Cc2ccc(C(=O)O)o2)c(C)c1[N+](=O)[O-],inconclusive: 4.62%,
Cc1ccccc1-c1nnc(SCC(=O)c2c(N)n(C3CC3)c(=O)[nH]c2=O)o1,inconclusive: 2.25%,
Cc1ccc(-c2ocnc2C(=O)N2CCN(C(=O)c3cccs3)CC2)cc1,inactive,
O=C(Cn1nc(-c2nn(CC(=O)c3ccccc3)c3[n+]2CCCCC3)[n+]2c1CCCCC2)c1ccccc1,inconclusive: 0.155%,
Cc1occc1C(=O)NNC(=O)Nc1ccc(F)cc1F,,"inconclusive: 20.6 µM [rising, partial curve, poor fit]"
O=C(Nc1ccccc1)c1ccc(CSc2ccccn2)cc1,inconclusive: -24.8%,
O=C(Nc1ccccc1)C1=C[C@@H](c2ccc(Br)cc2)C[C@@H](OCCCCO)O1,,"inconclusive: 12.6 µM [falling, partial curve]"
CN(c1ccccc1)S(=O)(=O)c1ccc(C(=O)Nc2nccs2)cc1,inconclusive: 18.8%,
Cc1ccc2cc3c(N)c(C(=O)N4CCOCC4)sc3nc2c1,,"inconclusive: 22.4 µM [falling, partial curve]"
O=C(O)/C=C/C(=O)N(CC1CCCO1)C1CC(=O)N(c2c(Cl)cccc2Cl)C1=O (stereo unspecified),,"inconclusive: 35.5 µM [falling, single point]"
O=C(C1CCCCC1)N(Cc1cccnc1)c1nc2ccc(F)cc2s1,inactive,
CCN(CC(=O)NCc1ccc(Cl)cc1)C(=O)Cc1ccccc1[N+](=O)[O-],,"inconclusive: 2 µM [falling, partial curve, poor fit]"
COc1ccc2[nH]c3c(=O)n(CCCCC(=O)N4CCCC4)c(=S)[nH]c3c2c1,inconclusive: -9.86%,
